Data source: PubChem BioAssay AID1224830 (NIAID, 2016)

Aim: 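Regulators of TLR4 signalling towards TNF-alpha in macrophage-like cells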 (primary screen)
System: human THP-1 monocytic leukaemia cells, TNF dual-luciferase reporter clone, PMA-differentiated to macrophage-like cells
Knock-down reagent: siRNA pool against human genes, 50 nM
Duration: LPS for 4 h, given about 3 days after siRNA transfection
Treatment: bacterial LPS (TLR4 ligand), 10 ng/ml
Measured: 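TNF firefly reporter luminescence divided by renilla, normalised to the plate median, then turned into a robust z-score for each replicate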
Direction: TNF reporter robust z-score: higher = stronger TNF reporter response to LPS
Rule for the call: 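Each well counts as active if its z-score is over 2.8 or under -1.5; controls are left without a call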
The whole screen tested about 18,000 reagents; shown is a part drawn at random. Over the whole deposit, about 2,900 (16%) were called active. 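Calls are made per well; low scores hint the gene aids the LPS response, high scores that it dampens it.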 Repeated entries: four replicate wells of each siRNA pool.

UNC79 scored TNF reporter robust z-score -0.87; inactive.
With knock-down of UNC79 the results were TNF reporter robust z-score -0.67; inactive.
With knock-down of UNC79 the results were TNF reporter robust z-score -0.5; inactive.
UNC79 scored TNF reporter robust z-score -0.28; inactive.
TPSG1 gave TNF reporter robust z-score 1.7; inactive.
Against TPSG1 the deposit lists TNF reporter robust z-score 0.75; inactive.
TPSG1 gave TNF reporter robust z-score 2.1; inactive.
TPSG1 scored TNF reporter robust z-score 1.78; inactive.
After knock-down of HCFC1R1, the screen gave TNF reporter robust z-score -0.68; inactive.
For HCFC1R1 the deposit lists TNF reporter robust z-score 0.37; inactive.
After knock-down of HCFC1R1, the record shows TNF reporter robust z-score 0.86; inactive.
Knock-down of HCFC1R1 resulted in: TNF reporter robust z-score 0.17; inactive.
NOP9 scored TNF reporter robust z-score 0.98; inactive.
NOP9 showed TNF reporter robust z-score 2.23; inactive.
Silencing of NOP9 resulted in: TNF reporter robust z-score 1.02; inactive.
With knock-down of NOP9, the screen gave TNF reporter robust z-score 1.94; inactive.
Against NRG1, the values are TNF reporter robust z-score 0.39; inactive.
Against NRG1 the deposit lists TNF reporter robust z-score 4.19; active.
NRG1 gave TNF reporter robust z-score 3.23; active.
Depletion of NRG1 gave: TNF reporter robust z-score 1.59; inactive.
After knock-down of SKIL, the screen gave TNF reporter robust z-score -0.67; inactive.
Against SKIL, the entry reads TNF reporter robust z-score 0.05; inactive.
After knock-down of SKIL, the screen gave TNF reporter robust z-score -0.14; inactive.
Silencing of SKIL gave: TNF reporter robust z-score -0.36; inactive.
With knock-down of CD37 the results were TNF reporter robust z-score 1.41; inactive.
CD37 gave TNF reporter robust z-score -1.19; inactive.
Silencing of CD37 gave: TNF reporter robust z-score -0.81; inactive.
CD37 showed TNF reporter robust z-score -0.86; inactive.
Depletion of ELL2 came out at: TNF reporter robust z-score -0.25; inactive.
Depletion of ELL2 gave: TNF reporter robust z-score -0.01; inactive.
ELL2 showed TNF reporter robust z-score 0.11; inactive.
ELL2 gave TNF reporter robust z-score 1.08; inactive.
Against PPCDC, the entry reads TNF reporter robust z-score 1.24; inactive.
For PPCDC the deposit lists TNF reporter robust z-score 1.11; inactive.
Depletion of PPCDC gave: TNF reporter robust z-score 0.91; inactive.
PPCDC showed TNF reporter robust z-score 1.14; inactive.
Knock-down of STARD7-AS1 resulted in: TNF reporter robust z-score 0.1; inactive.
STARD7-AS1 scored TNF reporter robust z-score -0.01; inactive.
After knock-down of STARD7-AS1, the screen gave TNF reporter robust z-score 0.44; inactive.
Against STARD7-AS1, the entry reads TNF reporter robust z-score -0.55; inactive.
PHKA1 gave TNF reporter robust z-score -1; inactive.
With knock-down of PHKA1 the results were TNF reporter robust z-score 0.15; inactive.
With knock-down of PHKA1 the results were TNF reporter robust z-score -0.75; inactive.
Depletion of PHKA1 came out at: TNF reporter robust z-score 1.15; inactive.
GOLGA6A showed TNF reporter robust z-score 0.3; inactive.
GOLGA6A gave TNF reporter robust z-score 0.67; inactive.
Depletion of GOLGA6A resulted in: TNF reporter robust z-score -0.12; inactive.
Knock-down of GOLGA6A gave: TNF reporter robust z-score 0.56; inactive.
CYFIP1 showed TNF reporter robust z-score -0.2; inactive.
Knock-down of CYFIP1 resulted in: TNF reporter robust z-score 2.13; inactive.
With knock-down of CYFIP1, the screen gave TNF reporter robust z-score 0.47; inactive.
Knock-down of CYFIP1 came out at: TNF reporter robust z-score 0.53; inactive.
With knock-down of BTN1A1 the results were TNF reporter robust z-score 0.43; inactive.
Knock-down of BTN1A1 resulted in: TNF reporter robust z-score 0.77; inactive.
Silencing of BTN1A1 resulted in: TNF reporter robust z-score 1.45; inactive.
BTN1A1 gave TNF reporter robust z-score 0.23; inactive.
For VAX2, the entry reads TNF reporter robust z-score -1.08; inactive.
With knock-down of VAX2, the screen gave TNF reporter robust z-score -1.17; inactive.
With knock-down of VAX2, the screen gave TNF reporter robust z-score -0.72; inactive.
With knock-down of VAX2 the results were TNF reporter robust z-score -0.08; inactive.

Part of the list above, reformatted.
PHKA1
- TNF reporter robust z-score: -0.75
- Call: inactive

PHKA1
- TNF reporter robust z-score: 1.15
- Call: inactive

GOLGA6A
- TNF reporter robust z-score: 0.3
- Call: inactive

GOLGA6A
- TNF reporter robust z-score: 0.67
- Call: inactive

GOLGA6A
- TNF reporter robust z-score: -0.12
- Call: inactive

GOLGA6A
- TNF reporter robust z-score: 0.56
- Call: inactive

CYFIP1
- TNF reporter robust z-score: -0.2
- Call: inactive

CYFIP1
- TNF reporter robust z-score: 2.13
- Call: inactive

CYFIP1
- TNF reporter robust z-score: 0.47
- Call: inactive

CYFIP1
- TNF reporter robust z-score: 0.53
- Call: inactive
